Experimental data published in the supplement of paper PMC10849652.
This is one part of the list.

The chains behind the UniProt entries cited, without tags or fusion partners. Where a name states a change or a piece, a line headed by the entry shows the natural chain unless it says otherwise.
UniProt P62745, whole entry, looked up: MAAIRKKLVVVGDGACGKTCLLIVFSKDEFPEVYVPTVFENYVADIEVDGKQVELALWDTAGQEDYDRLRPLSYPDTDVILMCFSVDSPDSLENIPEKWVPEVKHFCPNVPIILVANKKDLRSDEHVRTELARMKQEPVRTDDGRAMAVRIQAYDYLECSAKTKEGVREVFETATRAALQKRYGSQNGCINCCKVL
UniProt Q9UBS8: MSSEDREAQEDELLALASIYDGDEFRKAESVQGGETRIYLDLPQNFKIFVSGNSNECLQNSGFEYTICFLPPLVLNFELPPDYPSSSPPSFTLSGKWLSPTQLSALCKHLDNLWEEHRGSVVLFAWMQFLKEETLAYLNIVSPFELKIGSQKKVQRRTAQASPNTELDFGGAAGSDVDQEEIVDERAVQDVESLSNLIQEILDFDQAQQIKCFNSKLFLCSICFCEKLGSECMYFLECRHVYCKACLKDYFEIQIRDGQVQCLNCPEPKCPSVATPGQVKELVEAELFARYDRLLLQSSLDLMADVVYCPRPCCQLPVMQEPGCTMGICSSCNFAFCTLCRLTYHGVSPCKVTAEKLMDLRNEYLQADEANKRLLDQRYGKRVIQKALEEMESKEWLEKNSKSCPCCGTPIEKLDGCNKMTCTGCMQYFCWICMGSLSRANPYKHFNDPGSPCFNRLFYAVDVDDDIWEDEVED
UniProt O75150, whole entry, looked up: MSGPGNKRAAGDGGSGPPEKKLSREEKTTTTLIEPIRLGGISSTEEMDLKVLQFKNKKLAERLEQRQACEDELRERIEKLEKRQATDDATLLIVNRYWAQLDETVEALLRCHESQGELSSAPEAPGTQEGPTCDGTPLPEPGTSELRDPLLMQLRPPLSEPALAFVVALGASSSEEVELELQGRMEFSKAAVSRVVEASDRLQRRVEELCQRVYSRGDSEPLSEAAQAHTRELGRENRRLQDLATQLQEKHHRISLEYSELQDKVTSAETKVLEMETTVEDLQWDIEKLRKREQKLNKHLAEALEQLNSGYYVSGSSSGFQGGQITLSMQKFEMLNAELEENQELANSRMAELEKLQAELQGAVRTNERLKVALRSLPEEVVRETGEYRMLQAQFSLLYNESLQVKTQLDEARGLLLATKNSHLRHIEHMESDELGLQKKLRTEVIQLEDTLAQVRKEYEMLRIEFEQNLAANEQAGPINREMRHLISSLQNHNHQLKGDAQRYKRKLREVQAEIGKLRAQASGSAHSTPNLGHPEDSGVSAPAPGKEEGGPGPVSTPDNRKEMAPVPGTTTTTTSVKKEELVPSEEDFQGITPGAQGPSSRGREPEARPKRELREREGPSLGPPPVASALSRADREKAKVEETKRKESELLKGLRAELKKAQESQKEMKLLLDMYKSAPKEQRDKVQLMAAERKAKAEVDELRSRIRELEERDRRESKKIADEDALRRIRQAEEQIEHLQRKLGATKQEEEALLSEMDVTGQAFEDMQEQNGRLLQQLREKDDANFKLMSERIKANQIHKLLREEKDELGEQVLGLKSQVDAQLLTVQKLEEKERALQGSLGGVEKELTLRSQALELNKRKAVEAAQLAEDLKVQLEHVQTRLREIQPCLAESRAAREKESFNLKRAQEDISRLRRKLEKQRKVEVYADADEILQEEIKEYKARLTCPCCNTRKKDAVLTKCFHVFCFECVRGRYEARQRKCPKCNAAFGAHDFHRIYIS
UniProt Q8IUF8: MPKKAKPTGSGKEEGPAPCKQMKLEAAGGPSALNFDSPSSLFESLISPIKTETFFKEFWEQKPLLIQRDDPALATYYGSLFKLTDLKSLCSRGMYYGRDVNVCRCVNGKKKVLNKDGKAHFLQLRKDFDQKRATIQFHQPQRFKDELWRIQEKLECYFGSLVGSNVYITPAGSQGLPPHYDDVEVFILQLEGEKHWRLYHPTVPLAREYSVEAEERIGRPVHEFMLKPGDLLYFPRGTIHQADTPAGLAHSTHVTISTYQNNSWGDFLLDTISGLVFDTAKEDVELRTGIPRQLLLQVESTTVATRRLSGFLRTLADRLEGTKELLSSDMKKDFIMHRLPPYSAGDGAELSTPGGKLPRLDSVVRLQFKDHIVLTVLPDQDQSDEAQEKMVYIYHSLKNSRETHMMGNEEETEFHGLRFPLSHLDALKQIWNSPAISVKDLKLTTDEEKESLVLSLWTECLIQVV
UniProt Q9BVS4: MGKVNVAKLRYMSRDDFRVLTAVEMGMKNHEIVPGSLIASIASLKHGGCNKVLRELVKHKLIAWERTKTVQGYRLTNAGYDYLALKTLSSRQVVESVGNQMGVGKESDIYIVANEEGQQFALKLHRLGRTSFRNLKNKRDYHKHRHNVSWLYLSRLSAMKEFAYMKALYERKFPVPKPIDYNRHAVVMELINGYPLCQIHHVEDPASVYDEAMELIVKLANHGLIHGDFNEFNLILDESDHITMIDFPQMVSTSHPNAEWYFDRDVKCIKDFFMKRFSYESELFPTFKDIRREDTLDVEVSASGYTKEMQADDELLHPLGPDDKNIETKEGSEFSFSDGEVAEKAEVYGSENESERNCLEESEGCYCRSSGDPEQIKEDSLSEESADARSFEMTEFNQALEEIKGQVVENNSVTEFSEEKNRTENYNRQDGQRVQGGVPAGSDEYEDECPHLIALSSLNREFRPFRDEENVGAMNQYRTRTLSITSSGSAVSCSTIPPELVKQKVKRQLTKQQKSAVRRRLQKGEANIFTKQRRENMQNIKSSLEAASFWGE
UniProt O15541: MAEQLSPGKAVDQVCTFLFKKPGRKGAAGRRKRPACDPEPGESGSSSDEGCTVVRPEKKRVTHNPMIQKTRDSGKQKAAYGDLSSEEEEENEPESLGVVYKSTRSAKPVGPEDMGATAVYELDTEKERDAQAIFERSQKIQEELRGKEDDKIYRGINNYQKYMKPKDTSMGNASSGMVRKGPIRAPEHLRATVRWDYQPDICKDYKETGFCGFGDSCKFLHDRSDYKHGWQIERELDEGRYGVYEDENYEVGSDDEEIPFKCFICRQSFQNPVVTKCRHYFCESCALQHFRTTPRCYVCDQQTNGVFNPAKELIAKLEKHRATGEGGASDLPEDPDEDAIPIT
UniProt P61586, whole entry, looked up: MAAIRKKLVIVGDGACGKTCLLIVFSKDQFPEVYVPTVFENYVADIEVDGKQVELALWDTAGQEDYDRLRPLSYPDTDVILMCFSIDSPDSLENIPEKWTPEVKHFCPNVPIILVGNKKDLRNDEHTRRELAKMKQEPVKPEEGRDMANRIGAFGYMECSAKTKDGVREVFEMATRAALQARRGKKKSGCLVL
UniProt Q4ADV7: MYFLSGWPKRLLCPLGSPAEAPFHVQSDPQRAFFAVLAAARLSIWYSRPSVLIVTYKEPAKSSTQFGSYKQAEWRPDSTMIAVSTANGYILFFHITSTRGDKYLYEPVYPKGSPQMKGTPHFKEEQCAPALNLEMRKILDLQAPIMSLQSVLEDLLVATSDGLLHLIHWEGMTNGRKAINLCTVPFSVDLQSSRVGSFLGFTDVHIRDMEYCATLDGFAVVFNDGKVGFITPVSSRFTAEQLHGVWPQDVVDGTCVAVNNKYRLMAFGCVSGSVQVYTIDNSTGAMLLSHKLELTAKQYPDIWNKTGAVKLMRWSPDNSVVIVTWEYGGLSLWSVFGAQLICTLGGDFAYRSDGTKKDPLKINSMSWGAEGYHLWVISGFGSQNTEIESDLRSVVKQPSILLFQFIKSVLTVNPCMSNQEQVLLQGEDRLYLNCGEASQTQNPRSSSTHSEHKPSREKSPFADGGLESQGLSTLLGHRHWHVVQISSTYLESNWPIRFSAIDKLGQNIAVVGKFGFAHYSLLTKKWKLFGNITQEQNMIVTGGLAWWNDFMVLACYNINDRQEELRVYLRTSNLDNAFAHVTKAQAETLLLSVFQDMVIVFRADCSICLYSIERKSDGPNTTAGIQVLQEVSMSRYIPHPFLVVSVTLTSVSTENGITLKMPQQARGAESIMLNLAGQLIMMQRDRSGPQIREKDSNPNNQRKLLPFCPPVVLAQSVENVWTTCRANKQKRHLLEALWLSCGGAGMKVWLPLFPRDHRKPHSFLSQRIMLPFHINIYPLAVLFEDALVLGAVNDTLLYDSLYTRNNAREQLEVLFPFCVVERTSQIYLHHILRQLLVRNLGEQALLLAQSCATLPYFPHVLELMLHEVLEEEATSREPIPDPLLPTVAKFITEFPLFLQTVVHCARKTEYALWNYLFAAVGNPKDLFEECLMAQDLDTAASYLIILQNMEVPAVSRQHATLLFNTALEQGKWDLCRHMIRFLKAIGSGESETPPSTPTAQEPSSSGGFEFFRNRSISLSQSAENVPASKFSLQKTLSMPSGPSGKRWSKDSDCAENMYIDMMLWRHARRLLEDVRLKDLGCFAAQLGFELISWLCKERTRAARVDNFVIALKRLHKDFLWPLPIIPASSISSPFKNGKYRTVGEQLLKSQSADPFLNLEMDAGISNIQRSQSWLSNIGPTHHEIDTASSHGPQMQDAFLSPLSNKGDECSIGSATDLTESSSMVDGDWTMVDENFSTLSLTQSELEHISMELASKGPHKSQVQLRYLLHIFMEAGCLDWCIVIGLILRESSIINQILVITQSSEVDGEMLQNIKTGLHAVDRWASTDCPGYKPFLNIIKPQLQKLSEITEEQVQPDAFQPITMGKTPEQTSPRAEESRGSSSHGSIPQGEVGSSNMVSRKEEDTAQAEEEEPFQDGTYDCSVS
UniProt Q6ZS17: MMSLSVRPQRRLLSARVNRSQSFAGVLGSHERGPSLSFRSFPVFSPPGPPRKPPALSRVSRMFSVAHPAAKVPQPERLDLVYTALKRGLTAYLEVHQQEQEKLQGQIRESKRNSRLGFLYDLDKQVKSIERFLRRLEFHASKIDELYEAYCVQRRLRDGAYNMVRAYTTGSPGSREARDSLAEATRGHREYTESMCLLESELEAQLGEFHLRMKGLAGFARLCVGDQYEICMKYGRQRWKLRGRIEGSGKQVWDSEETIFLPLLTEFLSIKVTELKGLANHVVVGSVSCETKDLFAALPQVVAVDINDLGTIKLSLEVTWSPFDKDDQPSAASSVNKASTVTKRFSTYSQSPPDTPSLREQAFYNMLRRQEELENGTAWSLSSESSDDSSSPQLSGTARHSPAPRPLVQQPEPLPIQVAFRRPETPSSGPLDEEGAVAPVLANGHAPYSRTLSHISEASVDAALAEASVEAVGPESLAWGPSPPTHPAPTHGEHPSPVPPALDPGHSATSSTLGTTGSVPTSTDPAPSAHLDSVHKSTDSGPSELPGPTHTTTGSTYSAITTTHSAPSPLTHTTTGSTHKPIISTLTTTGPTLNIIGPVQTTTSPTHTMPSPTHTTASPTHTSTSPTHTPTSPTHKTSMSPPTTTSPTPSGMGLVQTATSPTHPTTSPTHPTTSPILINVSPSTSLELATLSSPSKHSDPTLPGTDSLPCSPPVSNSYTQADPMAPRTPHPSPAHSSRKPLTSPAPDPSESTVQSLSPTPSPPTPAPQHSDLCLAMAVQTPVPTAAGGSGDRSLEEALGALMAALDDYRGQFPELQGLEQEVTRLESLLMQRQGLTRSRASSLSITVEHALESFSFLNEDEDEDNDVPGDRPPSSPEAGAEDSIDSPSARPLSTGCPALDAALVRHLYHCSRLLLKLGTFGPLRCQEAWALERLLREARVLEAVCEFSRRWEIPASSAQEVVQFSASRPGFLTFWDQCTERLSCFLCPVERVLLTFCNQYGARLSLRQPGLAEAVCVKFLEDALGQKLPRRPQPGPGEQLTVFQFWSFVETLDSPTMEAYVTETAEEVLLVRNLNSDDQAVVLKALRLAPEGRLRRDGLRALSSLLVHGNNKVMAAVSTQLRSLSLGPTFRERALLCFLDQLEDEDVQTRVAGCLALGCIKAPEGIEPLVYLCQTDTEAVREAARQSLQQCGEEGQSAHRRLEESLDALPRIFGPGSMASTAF
UniProt Q8IXW5, whole entry, looked up: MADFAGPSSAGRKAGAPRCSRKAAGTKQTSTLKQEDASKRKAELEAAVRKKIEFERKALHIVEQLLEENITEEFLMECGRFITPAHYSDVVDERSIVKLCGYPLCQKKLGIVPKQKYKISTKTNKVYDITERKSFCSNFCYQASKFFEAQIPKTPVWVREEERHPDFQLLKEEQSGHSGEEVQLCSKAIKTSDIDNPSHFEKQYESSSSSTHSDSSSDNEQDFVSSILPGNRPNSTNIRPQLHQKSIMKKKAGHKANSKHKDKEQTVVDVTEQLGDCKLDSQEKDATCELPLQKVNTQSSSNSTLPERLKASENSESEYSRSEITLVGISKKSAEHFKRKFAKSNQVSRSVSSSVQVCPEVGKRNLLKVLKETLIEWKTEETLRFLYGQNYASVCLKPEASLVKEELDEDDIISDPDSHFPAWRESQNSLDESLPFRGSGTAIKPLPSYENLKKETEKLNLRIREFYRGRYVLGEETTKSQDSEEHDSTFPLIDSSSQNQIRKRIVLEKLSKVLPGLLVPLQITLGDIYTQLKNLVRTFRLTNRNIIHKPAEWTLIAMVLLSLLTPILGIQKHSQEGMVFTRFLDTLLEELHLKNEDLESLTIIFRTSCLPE

Tests used:
Assay in all cases: log2 fold change, soluble protein after heating vs DMSO (PISA); higher = thermal stabilisation; K562 lysate, 10 uM; active = over 0.2 and 3.5 SD of the protein, either way, in both replicates (recomputed)
[1] = compound: C=CC(=O)N1CCC[C@@H](n2nc(-c3ccc(Oc4ccccc4)cc3)c3c(N)ncnc32)C1 [ibrutinib]
In short: (§1)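 Values give the log-two fold change in thermal stability against solvent controls, from duplicates. Crude K562 extract at 1 mg/mL protein, made by dounce homogenisation in PBS pH 7.4 with 1 mM MgCl2, was treated with 10 μM compound for 30 min. After 3 min heating across 48°C-58°C, aliquots were pooled, adjusted to 0.5% NP-40 at 4°C and centrifuged at 21,000xg for 90 min. The supernatant was measured by TMTpro 16plex LC-MS/MS with channel sums equalised.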

[2] = compound: CC(=O)c1cnc2ccc(-c3cc(Cl)c(O)c(Cl)c3)nc2c1N[C@H]1CC[C@H](CN(C)C)CC1
In short: as §1

[3] = compound: CC(C)(C)Cn1c(N)nc2ccc(-c3[nH]c(C(C)(C)C)nc3-c3ccc(F)cc3)nc21 [ralimetinib]
In short: as §1

[4] = compound: CC(C)(O)CC(=O)NCCn1ccc2ncnc(Nc3ccc(Oc4cccc(C(F)(F)F)c4)c(Cl)c3)c21
In short: as §1

[5] = compound: CC(C)C1=C2N=C(C=C(N2N=C1)NCC3=CC=CC=C3)NCCCCCCN
In short: as §1

[6] = compound: CC1=C(C(CC(=O)N1)C2=CC=C(C=C2)C(F)(F)F)C(=O)NC3=C(C=C4C(=C3)C=NN4)F
In short: as §1

[7] = compound: CC1=C(C2=C(C=C1)C(=O)C3=CC=CC=C3N2CCCN)C
In short: as §1

[8] = compound: CC1=C(C=C(C=C1)NC(=O)C2=CC(=CC=C2)C(C)(C)C#N)NC3=CC4=C(C=C3)N=CN(C4=O)C
In short: as §1

[9] = compound: CC1=C(C=C(C=C1)NC(=O)C2=CC(=CC=C2)N(C)C)NC(=O)C3=CC=C(C=C3)O
In short: as §1

[10] = compound: CC1=CC=C(C=C1)SC2=C3C=C(SC3=CN=C2)C(=O)N
In short: as §1

| Target | log2 fold change [1] | log2 fold change [2] | log2 fold change [3] | log2 fold change [4] | log2 fold change [5] | log2 fold change [6] | log2 fold change [7] | log2 fold change [8] | log2 fold change [9] | log2 fold change [10] |
| --- | --- | --- | --- | --- | --- | --- | --- | --- | --- | --- |
| RHOB (UniProt P62745) | inactive: -0.095 | inactive: 0.041 | inactive: -0.033 | inactive: 0.001 | inactive: -0.037 | inactive: -0.021 | inactive: -0.009 | inactive: 0.087 | inactive: -0.026 | inactive: -0.021 |
| RIDA (UniProt P52758) | inactive: -0.007 | inactive: -0.016 | inactive: -0.03 | inactive: -0.011 | inactive: -0.041 | inactive: -0.022 | inactive: 0.017 | inactive: -0.053 | inactive: 0.048 | inactive: -0.016 |
| RNF14 (UniProt Q9UBS8) | inactive: -0.022 | inactive: 0.008 | inactive: -0.035 | inactive: -0.007 | inactive: 0.007 | inactive: -0.013 | inactive: 0.009 | inactive: 0.015 | inactive: 0 | inactive: -0.023 |
| RPL34 (UniProt P49207) | inactive: -0.007 | inactive: -0.005 | inactive: 0.016 | inactive: 0.002 | inactive: 0.006 | inactive: -0.01 | inactive: -0.029 | inactive: -0.007 | inactive: -0.019 | inactive: -0.001 |
| RNF40 (UniProt O75150) | inactive: 0.048 | inactive: -0.014 | inactive: 0.033 | inactive: -0.015 | inactive: -0.023 | inactive: 0.007 | inactive: -0.01 | inactive: -0.001 | inactive: -0.006 | inactive: 0.004 |
| RPL35 (UniProt P42766) | inactive: -0.009 | inactive: -0.131 | inactive: -0.013 | inactive: -0.006 | inactive: 0.021 | inactive: -0.019 | inactive: -0.062 | inactive: -0.019 | inactive: -0.03 | inactive: 0.021 |
| RIOX2 (UniProt Q8IUF8) | inactive: 0.046 | inactive: 0.017 | inactive: -0.03 | inactive: -0.016 | inactive: -0.004 | inactive: -0.033 | inactive: -0.012 | inactive: 0.048 | inactive: 0.024 | inactive: 0.025 |
| RIOK2 (UniProt Q9BVS4) | inactive: -0.012 | active: 0.512 | inactive: 0.026 | inactive: -0.014 | inactive: -0.021 | inactive: -0.018 | inactive: -0.011 | inactive: -0.016 | inactive: 0.013 | inactive: 0.052 |
| RNF113A (UniProt O15541) | inactive: 0.009 | inactive: -0.003 | inactive: 0.005 | inactive: -0.049 | inactive: 0.111 | inactive: 0.015 | inactive: -0.038 | inactive: 0.024 | inactive: 0.017 | inactive: -0.03 |
| RPL27A (UniProt P46776) | inactive: -0.03 | inactive: -0.014 | inactive: -0.025 | inactive: -0.026 | inactive: 0.012 | inactive: -0.038 | inactive: -0.047 | inactive: 0.003 | inactive: -0.013 | inactive: 0.031 |
| RHOA (UniProt P61586) | inactive: 0.36 | inactive: -0.041 | inactive: 0.014 | inactive: 0.094 | inactive: 0.031 | inactive: 0.003 | inactive: 0.093 | inactive: -0.02 | inactive: -0.022 | inactive: -0.006 |
| RIC1 (UniProt Q4ADV7) | inactive: -0.129 | inactive: -0.052 | inactive: 0.046 | inactive: -0.074 | inactive: 0.038 | inactive: -0.032 | inactive: -0.065 | inactive: 0.113 | inactive: 0.027 | inactive: -0.006 |
| RHOT1 isoform 3 (UniProt Q8IXI2) | inactive: -0.009 | inactive: -0.036 | inactive: -0.02 | inactive: -0.017 | inactive: 0.027 | inactive: 0.012 | inactive: 0.006 | inactive: -0.011 | inactive: 0.054 | inactive: 0.006 |
| RIPOR1 isoform 4 (UniProt Q6ZS17) | inactive: -0.013 | inactive: 0.071 | inactive: 0.005 | inactive: 0.042 | inactive: -0.035 | inactive: 0.044 | inactive: 0.004 | inactive: 0.032 | inactive: 0.053 | inactive: -0.012 |
| RPAP2 (UniProt Q8IXW5) | inactive: 0.015 | inactive: 0.008 | inactive: 0.006 | inactive: -0.04 | inactive: 0.014 | inactive: 0.011 | inactive: -0.019 | inactive: -0.005 | inactive: 0.049 | inactive: 0.008 |

As entered above.
RNF113A (UniProt O15541) – log2 fold change [3]: inactive: 0.005
RIPOR1 isoform 4 (UniProt Q6ZS17) – log2 fold change [2]: inactive: 0.071
